Assay results: the supplement of paper PMC10727501
Some of the results follow. This data set is noisy: repeats of one test often differ as much as different tests do.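 Free-swimming zebrafish larvae were scored for O-bend response probability to dark flashes (naive: first five; training: remaining flashes of four 60-flash blocks; test: later 60-flash block) and for turning toward alternating leftward/rightward LED motion (OMR). Six treated larvae were compared with sixty 0.1% DMSO controls; |SSMD|≥2 defined a hit.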

Assays:
Details in all cases: 10 µM; pre-incubation: 30-90 min
[1] = tested on: Danio rerio larvae (5 dpf, TLF); assay: OMR-Perf (SSMD vs DMSO vehicle); higher = higher than vehicle (e.g. higher dark-flash O-bend response probability, or better optomotor performance)
[2] = tested on: Danio rerio larvae (5 dpf, TLF); assay: Prob-Test (SSMD vs DMSO vehicle); higher = higher than vehicle (e.g. higher dark-flash O-bend response probability, or better optomotor performance)
[3] = tested on: Danio rerio larvae (5 dpf, TLF); assay: Prob-Naive (SSMD vs DMSO vehicle); higher = higher than vehicle (e.g. higher dark-flash O-bend response probability, or better optomotor performance)
[4] = tested on: Danio rerio larvae (5 dpf, TLF); assay: Prob-Train (SSMD vs DMSO vehicle); higher = higher than vehicle (e.g. higher dark-flash O-bend response probability, or better optomotor performance)

| SMILES | OMR-Perf [1] | Prob-Test [2] | Prob-Naive [3] | Prob-Train [4] |
| --- | --- | --- | --- | --- |
| O=C(/C=C\n1cnc(-c2cc(C(F)(F)F)cc(C(F)(F)F)c2)n1)NNc1cnccn1 | -0.671 | 1.17 | 0.0343 | 0.796 |
| O=c1c(O)c(-c2ccc(O)c(O)c2)oc2cc(O)ccc12 [Fisetin] | 0.0772 | 0.566 | 0.0956 | 0.344 |
| NS(=O)(=O)c1cc2c(cc1Cl)NC(C(Cl)Cl)NS2(=O)=O (centres undefined) [Trichlormethiazide] | 0.364 | 0.206 | -0.152 | -0.125 |
| CNCc1ccc(C)c(NC(=O)c2ccc(Nc3nc(-c4ccccc4)c4ccccc4n3)cc2)c1 | -0.511 | -1.24 | -0.825 | -1.77 |
| C#Cc1cccc(Nc2ncnc3cc(OCCOC)c(OCCO)cc23)c1 | -0.0244 | -0.386 | 0.0272 | -0.292 |
| CCc1cc2c(cc1N1CCC(N3CCOCC3)CC1)C(C)(C)c1[nH]c3cc(C#N)ccc3c1C2=O | 0.407 | -0.51 | 0.538 | 0.221 |
| CCN(CC)CCCC(C)Nc1c2ccc(Cl)cc2nc2ccc(OC)cc12.Cl.Cl (centres undefined) [Quinacrine 2HCl] | -0.536 | -0.0138 | -0.233 | -1.27 |
| CCC(=O)c1c(O)cc(O)cc1O [Flopropione] | -0.25 | -0.377 | -0.271 | -0.583 |
| COc1ccc2ccc(=O)oc2c1CC=C(C)C [Osthole] | -0.759 | -1.81 | -4.28 | -1.5 |
| CC(C)[C@H](O)C(=O)N[C@@H](C)C(=O)N[C@H]1C(=O)N(C)CCc2ccccc21 | 0.205 | -0.0941 | 0.449 | 0.0619 |
| CCCCCCOC(=O)/N=C(/N)c1ccc(NCc2nc3cc(C(=O)N(CCC(=O)OCC)c4ccccn4)ccc3n2C)cc1 [Dabigatran Etexilate] | -0.135 | -0.16 | 0.464 | -0.0838 |
| O=C(c1ccc(/C=C/c2n[nH]c3ccccc23)cc1)N1CCNCC1 | -0.0528 | 0.384 | 0.564 | 0.344 |
| Cl.Cl.NC1(c2ccc(-c3nc4ccn5c(=O)[nH]nc5c4cc3-c3ccccc3)cc2)CCC1 | -0.477 | 0.834 | 0.568 | 0.471 |
| O=P(O)(O)C(O)(Cn1ccnc1)P(=O)(O)O [Zoledronic Acid] | 0.416 | -0.275 | -0.262 | -0.5 |
| Cc1nnc(NS(=O)(=O)c2ccc(N)cc2)s1 [Sulfamethizole] | -0.111 | -0.249 | 0.402 | 0.336 |
| COc1cc(N2CCN(C)CC2)ccc1Nc1nccc(-c2cn(C)c3cnccc23)n1 | -0.481 | 0.155 | 0.227 | 0.648 |
| CC(C)NC[C@@H](C(=O)N1CCN(c2ncnc3c2[C@H](C)C[C@H]3O)CC1)c1ccc(Cl)cc1 | 0.311 | 0.26 | 0.538 | -0.114 |
| CC(C)Oc1ccc2c(=O)c(-c3ccccc3)coc2c1 [Ipriflavone (Osteofix)] | -0.172 | -1.94 | -0.666 | -2.03 |
| Cc1cc(N2CCOCC2)ccc1Nc1nc(NC2CCCCC2)c2[nH]cnc2n1 | -0.0425 | -0.238 | -0.366 | -1.1 |
| COc1cc2nc(N3CCCN(C)CC3)nc(NC3CCN(Cc4ccccc4)CC3)c2cc1OC.Cl.Cl.Cl | 0.387 | 0.153 | 0.446 | 0.26 |
| COc1ccc(C(C)=O)c(O)c1 [Paeonol] | -0.517 | -0.387 | 0.516 | -0.115 |
| N=C(N)NS(=O)(=O)c1ccc(N)cc1 [Sulfaguanidine] | -0.124 | 0.335 | 0.506 | 0.356 |
| OCCn1cc(-c2cnc3nnn(Cc4ccc5ncccc5c4)c3n2)cn1 | -0.307 | 0.355 | -0.115 | 0.347 |
| COc1cc(C2Oc3ccc(C4Oc5cc(O)cc(O)c5C(=O)C4O)cc3OC2CO)ccc1O (centres undefined) [Silymarin] | -0.232 | -0.378 | -0.91 | -0.168 |
| CC(C)(C)C(=O)OCOP(=O)(COCCn1cnc2c(N)ncnc21)OCOC(=O)C(C)(C)C [Adefovir Dipivoxil] | -0.152 | -0.122 | -0.141 | 0.143 |
| C[C@H](N)[C@H](O)c1cccc(O)c1 [Metaraminol Bitartrate] | -0.00672 | -0.0887 | 0.433 | 0.0899 |

Single records, as listed above. Values in the order: OMR-Perf [1] | Prob-Test [2] | Prob-Naive [3] | Prob-Train [4]
C[C@H](N)[C@H](O)c1cccc(O)c1 [Metaraminol Bitartrate] in the list: -0.00672 | -0.0887 | 0.433 | 0.0899
COc1ccc2ccc(=O)oc2c1CC=C(C)C [Osthole] in the list: -0.759 | -1.81 | -4.28 | -1.5
